According to paper PMC10479894:
These are yes or no findings as the source states them, for the method shown. Some entries that bind do so weakly or less than the wild type.

The chains behind the UniProt entries cited, without tags or fusion partners. Residues count along the entry.
UniProt Q59L12, residues 18-1134: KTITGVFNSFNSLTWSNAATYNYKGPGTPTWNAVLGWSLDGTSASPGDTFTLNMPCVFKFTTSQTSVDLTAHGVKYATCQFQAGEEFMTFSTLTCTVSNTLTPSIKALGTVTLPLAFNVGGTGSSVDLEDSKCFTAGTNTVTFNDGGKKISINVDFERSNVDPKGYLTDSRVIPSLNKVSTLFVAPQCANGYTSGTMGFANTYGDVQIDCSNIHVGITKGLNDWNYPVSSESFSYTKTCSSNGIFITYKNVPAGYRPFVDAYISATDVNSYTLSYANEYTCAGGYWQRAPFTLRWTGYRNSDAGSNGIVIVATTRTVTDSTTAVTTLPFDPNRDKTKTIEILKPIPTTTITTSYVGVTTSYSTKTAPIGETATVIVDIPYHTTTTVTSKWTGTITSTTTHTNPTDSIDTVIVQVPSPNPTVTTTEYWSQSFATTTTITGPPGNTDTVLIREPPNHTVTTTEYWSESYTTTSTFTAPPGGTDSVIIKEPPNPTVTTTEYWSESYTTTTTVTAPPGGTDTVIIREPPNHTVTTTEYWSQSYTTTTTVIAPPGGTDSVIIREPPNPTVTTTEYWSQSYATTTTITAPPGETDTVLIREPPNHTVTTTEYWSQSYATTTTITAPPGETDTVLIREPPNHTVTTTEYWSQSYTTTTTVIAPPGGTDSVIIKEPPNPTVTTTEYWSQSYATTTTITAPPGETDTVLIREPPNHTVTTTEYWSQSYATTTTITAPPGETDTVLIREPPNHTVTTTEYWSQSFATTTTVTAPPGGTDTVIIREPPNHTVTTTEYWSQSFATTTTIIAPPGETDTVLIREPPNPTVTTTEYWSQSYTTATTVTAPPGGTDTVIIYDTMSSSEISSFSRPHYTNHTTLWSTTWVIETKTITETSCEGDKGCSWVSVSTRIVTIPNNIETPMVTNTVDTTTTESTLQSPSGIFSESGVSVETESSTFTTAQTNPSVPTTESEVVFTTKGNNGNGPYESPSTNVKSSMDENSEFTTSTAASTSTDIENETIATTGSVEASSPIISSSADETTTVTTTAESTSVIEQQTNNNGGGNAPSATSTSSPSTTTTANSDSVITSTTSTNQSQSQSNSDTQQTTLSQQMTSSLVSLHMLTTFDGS
UniProt Q5AL03, residues 21-895: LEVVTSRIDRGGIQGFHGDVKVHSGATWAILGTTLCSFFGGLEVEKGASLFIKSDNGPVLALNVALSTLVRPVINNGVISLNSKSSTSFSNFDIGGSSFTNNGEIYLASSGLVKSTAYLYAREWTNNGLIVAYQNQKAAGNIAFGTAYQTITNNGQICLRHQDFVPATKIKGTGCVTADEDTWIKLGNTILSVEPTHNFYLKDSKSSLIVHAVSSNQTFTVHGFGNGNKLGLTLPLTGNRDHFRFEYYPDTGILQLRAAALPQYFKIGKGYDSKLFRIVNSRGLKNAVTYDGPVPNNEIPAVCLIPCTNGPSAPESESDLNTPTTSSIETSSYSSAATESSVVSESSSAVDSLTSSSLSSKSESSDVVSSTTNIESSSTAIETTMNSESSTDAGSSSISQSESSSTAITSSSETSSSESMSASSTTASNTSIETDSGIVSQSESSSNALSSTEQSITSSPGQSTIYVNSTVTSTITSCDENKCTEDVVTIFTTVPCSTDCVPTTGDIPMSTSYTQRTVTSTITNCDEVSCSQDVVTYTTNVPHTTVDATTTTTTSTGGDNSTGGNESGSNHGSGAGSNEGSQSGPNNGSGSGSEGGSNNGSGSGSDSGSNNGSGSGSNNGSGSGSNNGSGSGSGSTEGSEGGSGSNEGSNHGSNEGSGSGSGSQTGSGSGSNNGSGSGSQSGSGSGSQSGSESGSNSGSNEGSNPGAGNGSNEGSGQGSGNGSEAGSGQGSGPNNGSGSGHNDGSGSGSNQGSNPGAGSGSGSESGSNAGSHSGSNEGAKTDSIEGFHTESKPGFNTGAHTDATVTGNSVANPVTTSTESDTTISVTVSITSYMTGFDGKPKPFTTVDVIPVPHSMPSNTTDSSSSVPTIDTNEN
UniProt P08581, residues 25-932: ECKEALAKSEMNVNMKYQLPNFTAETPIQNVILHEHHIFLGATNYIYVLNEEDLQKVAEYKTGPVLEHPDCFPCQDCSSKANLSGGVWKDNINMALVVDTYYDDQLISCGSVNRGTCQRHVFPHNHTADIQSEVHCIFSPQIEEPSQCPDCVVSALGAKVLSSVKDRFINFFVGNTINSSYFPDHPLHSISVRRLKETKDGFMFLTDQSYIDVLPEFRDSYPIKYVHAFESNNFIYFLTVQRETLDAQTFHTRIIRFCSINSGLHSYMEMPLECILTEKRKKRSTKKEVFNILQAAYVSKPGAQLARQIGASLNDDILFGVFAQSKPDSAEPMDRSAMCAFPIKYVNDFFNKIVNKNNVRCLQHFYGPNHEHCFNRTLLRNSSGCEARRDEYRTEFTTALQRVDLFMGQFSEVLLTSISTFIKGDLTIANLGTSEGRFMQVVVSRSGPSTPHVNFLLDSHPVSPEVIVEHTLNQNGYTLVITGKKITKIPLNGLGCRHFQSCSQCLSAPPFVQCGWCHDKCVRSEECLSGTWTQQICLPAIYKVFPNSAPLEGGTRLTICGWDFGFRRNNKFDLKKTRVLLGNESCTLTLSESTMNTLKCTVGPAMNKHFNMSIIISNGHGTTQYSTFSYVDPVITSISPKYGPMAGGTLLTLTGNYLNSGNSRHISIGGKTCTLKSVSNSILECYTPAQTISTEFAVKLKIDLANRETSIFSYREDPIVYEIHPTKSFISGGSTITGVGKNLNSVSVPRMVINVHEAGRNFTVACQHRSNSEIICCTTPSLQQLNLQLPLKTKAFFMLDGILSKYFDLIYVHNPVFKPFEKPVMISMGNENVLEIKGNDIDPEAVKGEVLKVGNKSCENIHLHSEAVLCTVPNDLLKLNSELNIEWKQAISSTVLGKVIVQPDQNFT

Assays:
[1] = target: C. albicans Als3 (C. albicans) (UniProt Q59L12); assay: far-Western, overlay or dot blot; 15 ug of proteins released by regenerating C. albicans protoplasts, non-reducing/non-denaturing SDS-PAGE, PVDF membrane, probed with recombinant c-Met and an anti human c-Met antibody; the matching band of a parallel gel was excised and its proteins identified by tandem mass spectrometry; only the binder purified
[2] = target: C. albicans Hyr1 (C. albicans) (UniProt Q5AL03); assay: as above

recombinant c-Met (from UniProt P08581 25-932) (receptor)
binding [1]: binds | binding [2]: binds
